The target in test [1] is SEP1 fused to YFP (Arabidopsis thaliana) (UniProt P29382). The test can be described thus: FRET or BRET; pairs of one CFP (CyPet) and one YFP (YPet) fusion co-expressed in tobacco (N. benthamiana) leaf cells; signals in the nucleus by confocal microscopy, 440 nm excitation; FRET efficiency = FRET/CFP, mean of n > 4; steady-state scatter of pFRET against FRET efficiency.
Test [2] has as its target AGL6 fused to YFP or CFP (Arabidopsis thaliana) (UniProt P29386). The description is as above.
In test [3] the target is SEP1 fused to YFP (Arabidopsis thaliana) (UniProt P29382). The test can be described thus: FRET or BRET; competition: FRET efficiency of FYF-CFP/SEP1-YFP in tobacco cells with 0, 25, 75 and 100% of unlabeled FYL2 added; mean of n > 4.
The target in test [4] is AGL6 fused to YFP or CFP (Arabidopsis thaliana) (UniProt P29386). The test can be described thus: FRET or BRET; pairs of one CFP (CyPet) and one YFP (YPet) fusion co-expressed in tobacco (N. benthamiana) leaf cells; signals in the nucleus by confocal microscopy, 440 nm excitation; FRET efficiency = FRET/CFP, mean of n > 4; steady-state scatter of pFRET against FRET efficiency. The source holds these as a separate data set.

Sequences of proteins named here, by UniProt entry; tags and fusion partners are left off.
UniProt P29382: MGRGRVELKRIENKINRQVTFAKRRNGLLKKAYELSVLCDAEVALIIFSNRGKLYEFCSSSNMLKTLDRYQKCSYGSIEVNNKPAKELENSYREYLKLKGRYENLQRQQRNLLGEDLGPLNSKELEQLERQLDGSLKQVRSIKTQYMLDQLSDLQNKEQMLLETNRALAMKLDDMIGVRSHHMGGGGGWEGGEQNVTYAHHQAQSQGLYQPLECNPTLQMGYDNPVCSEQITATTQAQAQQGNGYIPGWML
UniProt P29386: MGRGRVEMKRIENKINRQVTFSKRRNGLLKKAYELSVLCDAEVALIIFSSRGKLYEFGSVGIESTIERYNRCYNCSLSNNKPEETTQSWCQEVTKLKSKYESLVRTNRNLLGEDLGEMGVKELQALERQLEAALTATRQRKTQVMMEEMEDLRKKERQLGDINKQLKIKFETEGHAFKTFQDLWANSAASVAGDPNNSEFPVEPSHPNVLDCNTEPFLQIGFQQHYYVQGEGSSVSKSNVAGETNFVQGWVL
UniProt Q9FIS1: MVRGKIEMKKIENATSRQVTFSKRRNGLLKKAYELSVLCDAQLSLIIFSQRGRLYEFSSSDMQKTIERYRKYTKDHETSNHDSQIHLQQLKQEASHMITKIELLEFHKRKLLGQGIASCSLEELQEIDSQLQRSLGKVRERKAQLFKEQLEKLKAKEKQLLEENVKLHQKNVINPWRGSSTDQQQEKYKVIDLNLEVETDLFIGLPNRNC

Like-named read-outs stand apart in the source and are kept apart here. Results are given in words; binding and its absence hold for the method and conditions named. Binding seen in cells or lysates may run through a third protein. Some entries that bind do so weakly or less than the wild type. For some of these results: Where a sequence is shown, tags or fusion partners need not be part of it.

On to “FOREVER YOUNG FLOWER (FYF) fused to CFP or YFP (from UniProt Q9FIS1 1-210)”, for which the binding entry in test [1], in test [2] and in test [3] was “binds” throughout.

B1: AGL15 fused to CFP or YFP (protein, UniProt Q38847 1-268)
chain: MGRGKIEIKRIENANSRQVTFSKRRSGLLKKARELSVLCDAEVAVIVFSKSGKLFEYSSTGMKQTLSRYGNHQSSSASKAEEDCAEVDILKDQLSKLQEKHLQLQGKGLNPLTFKELQSLEQQLYHALITVRERKERLLTNQLEESRLKEQRAELENETLRRQVQELRSFLPSFTHYVPSYIKCFAIDPKNALINHDSKCSLQNTDSDTTLQLGLPGEAHDRRTNEGERESPSSDSVTTNTSSETAERGDQSSLANSPPEAKRQRFSV
For the molecule B1, in test [4], the binding entry was “binds”.

For the origin of these results see PMC9256709.
